{"source": "paper PMC7819943", "about": "“Rice protein-binding microarrays: a tool to detect cis-acting elements near promoter regions in rice”", "note": "The list shows a part of the results."}
{"biological_target": "T1, OsSMF1 (Oryza sativa, UniProt Q6ZLB0 1-436)", "T1 sequence": "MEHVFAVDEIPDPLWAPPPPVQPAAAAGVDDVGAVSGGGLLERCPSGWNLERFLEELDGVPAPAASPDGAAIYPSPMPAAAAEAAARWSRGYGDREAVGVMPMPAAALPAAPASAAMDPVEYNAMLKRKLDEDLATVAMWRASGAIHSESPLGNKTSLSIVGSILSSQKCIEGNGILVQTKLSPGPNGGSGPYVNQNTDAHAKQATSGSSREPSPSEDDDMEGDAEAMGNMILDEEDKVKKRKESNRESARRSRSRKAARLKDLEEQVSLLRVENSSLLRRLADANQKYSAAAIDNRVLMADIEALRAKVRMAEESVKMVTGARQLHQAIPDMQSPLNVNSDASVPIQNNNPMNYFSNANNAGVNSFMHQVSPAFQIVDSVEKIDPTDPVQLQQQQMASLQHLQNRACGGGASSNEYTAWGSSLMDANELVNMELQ", "test": "protein-binding microarray (RPBM); PBS, 2% BSA, 51.3 ng/ul salmon testes DNA, 50 uM zinc acetate, 200 nM TF, 25 C, 1 h; high values mean tight binding", "conditions": "protein: recombinant; tags: N-terminal polyhistidine and DsRed monomer fusion (pET32a); chain copies: 2; label: CyDye5-dUTP incorporated in the synthesized complementary strand; 3' TTTTT single-stranded linker to array surface; dsDNA, one strand shown", "in_short": "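The binding signal is fluorescence intensity per feature, in arbitrary units, read on an Axon 4000B scanner. Polyhistidine- and DsRed-tagged transcription factors (N-terminal fusions) from E. coli BL21-CodonPlus were purified on Ni–NTA and applied at 200 nM for 1 h at 25 °C to a double-stranded, BSA-blocked custom Agilent array in buffer with 50 µM zinc acetate.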"}
{"sequence": "ATGCTTGGCTGCTTGCTGTGTTGGCTGTTGCTGAGGGCTACGGAGTCACCTAGTGCAG", "binding signal": "3970 fluorescence intensity (a.u.)"}
{"sequence": "ACTGTTGTTTCTTTTGTACTCATAGTCATAGCCGCGCCGCCGGAGTCACCTAGTGCAG", "binding signal": "4230 fluorescence intensity (a.u.)"}
{"sequence": "GCCCGAGAGCGAACGGCCGTCTGCCACGTCACATTTGCCGCGGAGTCACCTAGTGCAG", "binding signal": "32600 fluorescence intensity (a.u.)"}
{"sequence": "GATCGCGTCGAGGGCTACAAGTTTGATATAAAGTTTGTCTCGGAGTCACCTAGTGCAG", "binding signal": "26100 fluorescence intensity (a.u.)"}
{"sequence": "CTCACGAGCGCAAAGCCCATCTCAGCCCAGCTCCCACTCTCGGAGTCACCTAGTGCAG", "binding signal": "21000 fluorescence intensity (a.u.)"}
{"sequence": "AGGAAGAAGGGAATTAGTGGGAGGATGACATGTCGGTTCACGGAGTCACCTAGTGCAG", "binding signal": "5840 fluorescence intensity (a.u.)"}
{"sequence": "CTCTGTTCTCGCTGGCCGTACGTGTCAAGCGTATCCAGCACGGAGTCACCTAGTGCAG", "binding signal": "5870 fluorescence intensity (a.u.)"}
{"sequence": "TCAACTGCAGGGGACGCGATATTTAGGAACATCGCGTCGGCGGAGTCACCTAGTGCAG", "binding signal": "3160 fluorescence intensity (a.u.)"}
{"sequence": "GAGCAGTTAAGAACTCTGACCATGATGCAAAGACAACAGTCGGAGTCACCTAGTGCAG", "binding signal": "3970 fluorescence intensity (a.u.)"}
{"sequence": "CCTTCACTAACGCTAAACGTCACAGTAACAAACTTTCTCGCGGAGTCACCTAGTGCAG", "binding signal": "20900 fluorescence intensity (a.u.)"}
{"sequence": "CTGCCGCTGCGCGCAGGTCGTGACGCTCACGTCGTCGCCACGGAGTCACCTAGTGCAG", "binding signal": "4280 fluorescence intensity (a.u.)"}
{"sequence": "ACTGTGTTGGTGTACGAAAGGAAAGCGTGGTGGTGCTAAGCGGAGTCACCTAGTGCAG", "binding signal": "3810 fluorescence intensity (a.u.)"}
{"sequence": "CGCTCGCGTCCCCGTGACGCTGCTTCCCAGCGCCGCTGCCCGGAGTCACCTAGTGCAG", "binding signal": "4400 fluorescence intensity (a.u.)"}
{"sequence": "GACGAGGAAAACCGCTCGCCCATGCGGAGGCGGCGCGCGTCGGAGTCACCTAGTGCAG", "binding signal": "31500 fluorescence intensity (a.u.)"}
{"sequence": "CGCCGCGCTGGTCGCCATCGCCCTCCACGTCTCCTCCTCCCGGAGTCACCTAGTGCAG", "binding signal": "3980 fluorescence intensity (a.u.)"}
{"sequence": "TTCTTCGGTGGTGGTGGTGGTGGGATGGAAGAGGAGGAAGCGGAGTCACCTAGTGCAG", "binding signal": "3740 fluorescence intensity (a.u.)"}
{"sequence": "TGCACCGTGGGCCACAGCCTCACGCCGCGTCAGTCGTGCCCGGAGTCACCTAGTGCAG", "binding signal": "6330 fluorescence intensity (a.u.)"}
{"sequence": "ATGTGCATACTTCTGTTGTCACAATTTCACAGATTCAAGCCGGAGTCACCTAGTGCAG", "binding signal": "4820 fluorescence intensity (a.u.)"}
{"sequence": "CCCACCAGGGCCGGCCGTGACCGCGCCAGCTTGTCTTCCGCGGAGTCACCTAGTGCAG", "binding signal": "21700 fluorescence intensity (a.u.)"}
{"sequence": "ATCCCAATCCATGATCCAGCCATTCATCATCTGCATATATCGGAGTCACCTAGTGCAG", "binding signal": "3200 fluorescence intensity (a.u.)"}
{"sequence": "TTTTGACTTGCCAACCATGCCTGCCGTCAACAGTGTGGCGCGGAGTCACCTAGTGCAG", "binding signal": "3140 fluorescence intensity (a.u.)"}
{"sequence": "GTTTCCATCCTCATTGCGCCACATCCTCATGCAATGGCTGCGGAGTCACCTAGTGCAG", "binding signal": "4910 fluorescence intensity (a.u.)"}
{"sequence": "AGCCAATCGTGGGCCCCACGCCTTTTCCCCTCTCCCTCTTCGGAGTCACCTAGTGCAG", "binding signal": "4200 fluorescence intensity (a.u.)"}
{"sequence": "ACGCGCACCACCTGTTCGGCGTCAGCAAGATCCAGAAGACCGGAGTCACCTAGTGCAG", "binding signal": "3610 fluorescence intensity (a.u.)"}
{"sequence": "GAGTGAGACTTGTGACAAAGTTGTGAGTTGTGACTCAGCTCGGAGTCACCTAGTGCAG", "binding signal": "11600 fluorescence intensity (a.u.)"}
{"sequence": "CACACAGGGATGAGACGACGACGTGCAGCCGTACGTGTCACGGAGTCACCTAGTGCAG", "binding signal": "6310 fluorescence intensity (a.u.)"}
{"sequence": "CCGGCGTACGTACGTGGACGTCAACGCATTTGAACCGGTCCGGAGTCACCTAGTGCAG", "binding signal": "5530 fluorescence intensity (a.u.)"}
{"sequence": "CTAGTATTTGCATCGTGACGAAAATACACAGTAGCTAATGCGGAGTCACCTAGTGCAG", "binding signal": "3170 fluorescence intensity (a.u.)"}
{"sequence": "TCCCGGCCACTTGCCGTGTGACGACGCCGGTCAAATTTTCCGGAGTCACCTAGTGCAG", "binding signal": "3680 fluorescence intensity (a.u.)"}
{"sequence": "TCTTTCATGCCAACCCGCCGTCCTAGCCACTCCCGTTCTTCGGAGTCACCTAGTGCAG", "binding signal": "3510 fluorescence intensity (a.u.)"}
{"sequence": "GAAGAGGGGAAAAGAGAGAGGAGGTTGATGTGGCCTCGCTCGGAGTCACCTAGTGCAG", "binding signal": "3160 fluorescence intensity (a.u.)"}
{"sequence": "AGCAAGTGTCAACCCCATTTTGCTTCCTTTCCCACCTCCACGGAGTCACCTAGTGCAG", "binding signal": "4100 fluorescence intensity (a.u.)"}
{"sequence": "GGTGCACACGTGGCTCCAGGATCGGCGTCGTGTACTCCGGCGGAGTCACCTAGTGCAG", "binding signal": "11500 fluorescence intensity (a.u.)"}
{"sequence": "TTGGTGACAAAGCTTGAGGATAACATCAACGAGACAACGACGGAGTCACCTAGTGCAG", "binding signal": "32500 fluorescence intensity (a.u.)"}
{"sequence": "TTATTCCTGGCGTCGCGCGTCGCGTCACCGGCGCCGCCGCCGGAGTCACCTAGTGCAG", "binding signal": "4100 fluorescence intensity (a.u.)"}
{"sequence": "ACTGGGACTACTGCCACCTCAACTGCTTTGACGACGCGCCCGGAGTCACCTAGTGCAG", "binding signal": "3470 fluorescence intensity (a.u.)"}
{"sequence": "TTTGCTTGGGCTCAGTTGCCTGAAGAACACTCGGATGAATCGGAGTCACCTAGTGCAG", "binding signal": "3520 fluorescence intensity (a.u.)"}
{"sequence": "AGGGCGCGGTTCTCGTTTGGGCCGCCTCTGACGCATCAACCGGAGTCACCTAGTGCAG", "binding signal": "5330 fluorescence intensity (a.u.)"}
{"sequence": "GGGTATGCCATGTCGACACGTAACGTATATCGAAGGGTAGCGGAGTCACCTAGTGCAG", "binding signal": "9080 fluorescence intensity (a.u.)"}
{"sequence": "GTTCATGGTTGTGACACTATTCTGCTGTATCCTTTCTTTGCGGAGTCACCTAGTGCAG", "binding signal": "3400 fluorescence intensity (a.u.)"}
{"sequence": "TGACAGGTGACTAAGCACAGTCAATTTCTTCCCTTCAGAGCGGAGTCACCTAGTGCAG", "binding signal": "6060 fluorescence intensity (a.u.)"}
{"sequence": "CCCATTGATGCTACAGAGAGTCCACGTCACCCTCGTCTGCCGGAGTCACCTAGTGCAG", "binding signal": "42800 fluorescence intensity (a.u.)"}
{"sequence": "GTGTCCGTCCGTGTGTGGCTGCGTGGTGGCACGTCGGCATCGGAGTCACCTAGTGCAG", "binding signal": "6330 fluorescence intensity (a.u.)"}
{"sequence": "CACTCGCTCGTCCACGCGTCGCCAATCTGAATCGGGTGTGCGGAGTCACCTAGTGCAG", "binding signal": "5280 fluorescence intensity (a.u.)"}
{"sequence": "GGTGAGAATGACACGTGGGGCCCACGTGGGCCCCACCATTCGGAGTCACCTAGTGCAG", "binding signal": "13800 fluorescence intensity (a.u.)"}
{"sequence": "CCACCGTCCACTTCAGCACCATCCGGGAGTGACCATACGCCGGAGTCACCTAGTGCAG", "binding signal": "5040 fluorescence intensity (a.u.)"}
{"sequence": "GGAGATACGGCGAGGGGAGGGGACGGAGGGGCGGGGTGCGCGGAGTCACCTAGTGCAG", "binding signal": "7640 fluorescence intensity (a.u.)"}
{"sequence": "AACCAGCCCATCTAGCCTTGTCATCAACAGCATAAACAAACGGAGTCACCTAGTGCAG", "binding signal": "3200 fluorescence intensity (a.u.)"}
{"sequence": "CATCCTCATGTAGACATACATAGCTATATTTAGCAGTTTACGGAGTCACCTAGTGCAG", "binding signal": "3480 fluorescence intensity (a.u.)"}
{"sequence": "TATCTAAGTTGAACAAGCTGCTGCTACCATGTGGGGAAATCGGAGTCACCTAGTGCAG", "binding signal": "3190 fluorescence intensity (a.u.)"}
{"sequence": "ATATAGAAACGTCCACGTGGCCGCAGGAGATTGGGCGTCTCGGAGTCACCTAGTGCAG", "binding signal": "12400 fluorescence intensity (a.u.)"}
{"sequence": "ATGTAGGTTCCATATTAGCCAAGCCCGGGTCAATACTACTCGGAGTCACCTAGTGCAG", "binding signal": "3890 fluorescence intensity (a.u.)"}
{"sequence": "GGAGTCATGGGTGCATGACTTCACTTGTCATGGTTAAATACGGAGTCACCTAGTGCAG", "binding signal": "22900 fluorescence intensity (a.u.)"}
{"sequence": "TGTGCTCAGCCTTAATTAATTAATCGAGCGAGTCATAAGCCGGAGTCACCTAGTGCAG", "binding signal": "3460 fluorescence intensity (a.u.)"}
